Experimental data from PubChem BioAssay AID2685 (National Center for Advancing Translational Sciences (NCATS), 2010).
Hit rate of the full screen: of about 320,000 compounds, about 2,100 (0.66%) were called active. Inconclusive results, whose numbers are uncertain, are shown with a selection of clear calls. The call rests on the fitted dose curve; in most records, active means well fitted inhibition curve with a large enough effect in the signal ratio, with a control signal flat (not every such curve was filed as active); inconclusive means small, poorly fitted or top-dose-only effect, or effect the other way, or a change in a side signal; inactive means flat fitted curve, though single readings scatter; the % refers to the signal ratio. Potencies of inconclusive entries are doubtful fits and often do not repeat.

Test: qHTS Assay for Lipid Storage Modulators in Drosophila S3 Cells
Conditions: BODIPY lipid droplet fluorescence, 18-24 h, cells fed with added oleic acid; lipid storage change, negative = inhibition: at 46.1 µM (top of the series) unless noted
Procedure, shortened: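 Laser-scanning cytometry quantifies lipid droplet accumulation (500–530 nm total intensity; droplet/cell object ratio) in oleic acid-fed (400 uM added) Drosophila S3 cells treated with a concentration series. 20 uM Triacsin C defined 100% inhibition.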
On the % scale 0 is the no-effect control and ±100 the full control effect; potency means the concentration at half of the fitted maximal effect.

Lipid storage change, negative = inhibition, inactive:
CC(C)=CCN1CCN(Cc2cnc(-c3ccccc3)s2)CC1CCO (stereo not drawn)
COc1ccc(CCNC(=O)c2cc3c(=O)n4ccccc4nc3n(CCCN3CCOCC3)c2=N)cc1OC

Lipid storage change, negative = inhibition, inconclusive:
Cc1cccc(C)c1N(CC(=O)N1CCCC1)S(C)(=O)=O 13.5%
O=S(=O)(c1cc(F)ccc1F)N1CCC2(CC1)OCCN2S(=O)(=O)c1cccs1 14.9%
S=C1Cc2ccccc2C(c2ccc(Cl)cc2)N1 (stereo not drawn) 22.1%
COc1ccc(CNC(=O)CCc2c(C)nc3cc(-c4ccccc4OC)nn3c2C)cc1 7.59%
CCCCn1nnnc1NCc1ccc(OC)c(OC)c1OC -33.3%
CC(SCc1ccccc1)C(=O)N/N=C/c1ccc(OCC(=O)NCc2ccco2)cc1 (stereo not drawn) 15.1%
COc1ccc2c(c1OC)C(=O)N1C2SC(C)(C)[C@H]1C(=O)NCCCOC(C)C (stereo partly drawn) 22.6%
CN1CCN(CCCNC(=O)c2ccc(/C=C3\Oc4ccccc4N(Cc4ccccc4F)C3=O)cc2)CC1 -10.4%
O=c1[nH]nc(Cc2ccc3ccccc3n2)c2ccccc12 -34.6%
COc1ccc(-c2cc3c(=O)n(CC(=O)NCc4cccnc4)ncn3n2)cc1 -13.2%
O=C(CSc1nnc(-c2cccnc2)n1-c1ccccc1)Nc1ccc2c(c1)OCO2 -28.7%
CCOc1ccc(S(=O)(=O)Nc2ccc(C(=O)NCC3(N4CCCCC4)CCCCC3)cc2)cc1 32.2%
Cc1[nH]n(-c2ccccc2)c(=O)c1/C=N/N(c1ccccc1)c1ccccc1 -33.2%
CCOC(=O)C1C(=O)CC(C)(O)C(C(=O)OCC)C1c1cccs1 (stereo not drawn) -53.9%
COc1ccc(NC(=O)Nc2cccnc2)c(OC)c1 -6.59%
Cc1cc(C)c2cc(C(O)c3nnnn3Cc3ccccc3)c(=O)[nH]c2c1 (stereo not drawn) 24.5%
CN1C(=O)CC(c2ccccc2)CC1=O 13.9%
Cn1c(NNC(=O)C2CCCCC2)cc(=O)n(C)c1=O -13.5%
CCc1cc2cc(C)ccc2nc1SCC(=O)N1CCN(C(=O)c2ccco2)CC1 26.2%
O=C(Nc1cccc(Cl)c1Cl)c1ccccc1OCC(=O)N1CCOCC1 -23.1%
CCCCN1C(=S)NC[C@@H]1C(C)CC (stereo partly drawn) -7.9%
COCCNC(=O)C1CCCN(S(=O)(=O)c2c(C)noc2/C=C/c2cccs2)C1 (stereo not drawn) 25.9%
O=S(=O)(NC1CCCCC1)c1cccs1 -74.1%
O=C(CSc1ccc(-c2cccnc2)nn1)Nc1ccc(F)cc1F -17.2%
COC(=O)C1CCN(CC(=O)Nc2ccccc2Sc2ccccc2)CC1 0.356%
Brc1ccc(OCc2nc3ccccc3[nH]2)cc1 22%
CCC(CC)COC(=O)C1=C(C)NC(=O)NC1c1ccc2c(c1)OCO2 (stereo not drawn) -66.7%
CCC(=O)Nc1cccc(NC(=S)NC(=O)c2cccc(C)c2)c1 33.8%
N#Cc1c(-c2ccc(Cl)cc2)ccn2nc(CCC(=O)O)nc12 9.84%
CCN(C(=O)Nc1cccc(Cl)c1)c1ccccc1 17%

Potency, active:
COc1ccc(OC)c(NC(=O)c2cc(-c3c(C)cc(C)cc3O)n[nH]2)c1 0.206 µM

Potency, inconclusive:
Cc1ccc(-c2ccc(CCC(=O)O)n2-c2cccc(O)c2)cc1 14.6 µM [falling, partial curve, poor fit]
O=C(COC(=O)c1cc([N+](=O)[O-])ccc1N1CCOCC1)c1ccccc1Cl 18.4 µM [falling, single point]
CC1CCN(c2ccc3nnc(CCC(=O)NCC(C)c4ccccc4)n3n2)CC1 (stereo not drawn) 29.1 µM [falling, single point]
O=C(CNC(=S)NC(=O)c1ccc(Cl)cc1)c1ccccc1 0.517 µM [activator, full curve]
NS(=O)(=O)c1ccc(N2C(=O)C3CC=CCC3C2=O)cc1 (stereo not drawn) 0.146 µM [falling, full curve, poor fit]
O=C(NCc1cn(-c2ccccc2)nc1-c1ccccc1)c1ccc([N+](=O)[O-])cc1 29.1 µM [falling, single point]
Cn1c(=O)c2sccc2n2c(CCCC(=O)NCCc3ccccc3)nnc12 6.51 µM [falling, single point]
COc1ccc(S(=O)(=O)N2CCOC23CCN(S(=O)(=O)c2cccs2)CC3)cc1 3.26 µM [falling, partial curve]
CCNC(=O)c1cc2c(=O)n3cccc(C)c3nc2n(CCc2ccccc2)c1=N 0.092 µM [activator, full curve, poor fit]
CCOc1ccc(-n2c(SCC(=O)Nc3ccc(OC)cc3)nc3sc4c(c3c2=O)CCN(C)C4)cc1 23.1 µM [activator, single point]
CCOC(=O)c1c(C)[nH]c(C(=O)OCc2ccc(F)cc2)c1C 0.0366 µM [activator, full curve, poor fit]
O=C(CC12CC3CC(CC(C3)C1)C2)Nc1ccc(C(=O)O)cc1 16.4 µM [activator, single point]
CCN(CC)S(=O)(=O)c1ccc(OC)c(NC(=O)c2cc(=O)[nH]c3ccccc23)c1 5.8 µM [rising, single point]
O=C(NC(=S)N1CCOCC1)C12CCC3CC(CC(C3)C1)C2 29.1 µM [activator, partial curve, poor fit]
CCCC(=O)N(c1ccc2oc(C)c(C(C)=O)c2c1)S(=O)(=O)c1ccc(C(=O)O)cc1 20.6 µM [activator, single point]

Two compounds drawn at random from those above, as already listed:
Potency, inconclusive:
O=C(NC(=S)N1CCOCC1)C12CCC3CC(CC(C3)C1)C2 29.1 µM [activator, partial curve, poor fit]
CCOC(=O)c1c(C)[nH]c(C(=O)OCc2ccc(F)cc2)c1C 0.0366 µM [activator, full curve, poor fit]
